In patent US12364706B2, “Modified aminoglycoside compounds and uses thereof in disabling bacterial ribosome” (Technion Research & Development Foundation Limited, priority 2018, dated 2025):
Some results were stated once for a whole list of compounds, not compound by compound. For at least one compound, name, drawing or mass did not settle the structure.

Tests used:
WT Geobacillus T1 = test: Antibacterial activity against WT Geobacillus T1; format: cell-based; conditions: WT Geobacillus T1, also at 60° C.
[1] = system: Gram-positive pathogenic MRSA strains; test: Antibacterial activity (MIC, double-microdilution) against MRSA strains; format: cell-based
Procedure: Comparative antibacterial activities were determined by measuring the MIC values by using the double-microdilution method according to the National Committee for Clinical Laboratory Standards (NCCLS).
All the experiments were performed in triplicate, and analogous results were obtained in three different experiments.
The resistant strains included MRSA, a Gram-positive bacterium, the treatment of which represents a great challenge in the clinic; MRSA 252, which is known for its high resistance to aminoglycosides [M. T. G. Holden, E. J. Feil, J. A. Lindsay, S. J. Peacock, N. P. J. Day, M. C. Enright, T. J. Foster, C. E. Moore, L. Hurst, R. Atkin, et al., Proc. Natl. Acad. Sci. USA 2004, 101, 9786-9791]; and MRSA CI 15877, which is resistant to natural aminoglycosides [G. Kaneti, H. Sarig, I. Marjieh, Z. Fadia, A. Mor, FASEB J. 2013, 27, 4834-4843].

How did the antibacterial activity (WT Geobacillus T1) turn out when “4′-O-(2-aminoethylamino)ethyl-paromamine [Compound 1]” was run?
Its antibacterial activity is “showed antibacterial activity”.

“4′-O-(2-guanidinoethylamino)ethyl-neomycin [Compound 5]” was tested. Which “antibacterial performance versus that of NeoB” value [1] did it give?
The value was “improvement in antibacterial performance”.

And the antibacterial activity (WT Geobacillus T1)?
The antibacterial activity was “showed antibacterial activity”.

“4′-[2-(2-((benzyloxycarbonyl)(methyl)amino)ethylamino) acetamido]-4′-deoxy-neomycin [Compound 7]” was tested. Which “antibacterial performance versus that of NeoB” value [1] did it give?
Its value is “improvement in antibacterial performance”.

What about the antibacterial activity (WT Geobacillus T1) of the same compound?
The antibacterial activity was “showed antibacterial activity”.

Which results are given for `NCCNCC(=O)N[C@H]1[C@H](O)[C@@H](N)[C@@H](O[C@H]2[C@H](O[C@@H]3O[C@H](CO)[C@@H](O[C@H]4O[C@@H](CN)[C@@H](O)[C@H](O)[C@H]4N)[C@H]3O)[C@@H](O)[C@H](N)C[C@@H]2N)O[C@@H]1CN` [Compound 6, 4′-(2-(aminoethylamino)acetamido)-4′-deoxy-neomycin]?
antibacterial performance versus that of NeoB [1]: improvement in antibacterial performance; antibacterial activity (WT Geobacillus T1): showed antibacterial activity

`NCCNCCNCC(=O)NC1C(CN)OC(OC2C(N)CC(N)C(O)C2OC2OC(CO)C(OC3OC(CN)C(O)C(O)C3N)C2O)C(N)C1O` (stereo not shown) [Compound 8, 4′-[2-(2-(2-aminoethylamino)ethylamino)acetamido]-4′-deoxy-neomycin] was tested. Which “antibacterial performance versus that of NeoB” value [1] did it give?
The value was “improvement in antibacterial performance”.

And the antibacterial activity (WT Geobacillus T1)?
Its antibacterial activity is “showed antibacterial activity”.

Which “antibacterial performance versus that of NeoB” value [1] does the source give for `NCCNCC(=O)NC[C@H]1O[C@H](O[C@H]2[C@H](O[C@@H]3O[C@H](CO)[C@@H](O[C@H]4O[C@@H](CN)[C@@H](O)[C@H](O)[C@H]4N)[C@H]3O)[C@@H](O)[C@H](N)C[C@@H]2N)[C@H](N)[C@@H](O)[C@@H]1N` [Compound 9, 4′-amino-6′-(2-(aminoethylamino)acetamido)-4′-deoxy-neomycin] here?
Its value is “improvement in antibacterial performance”.

What about the antibacterial activity (WT Geobacillus T1) of the same compound?
Its antibacterial activity is “showed antibacterial activity”.

Which results are given for `NCCNCCNCC(=O)NC[C@H]1O[C@H](O[C@H]2[C@H](O[C@@H]3O[C@H](CO)[C@@H](O[C@H]4O[C@@H](CN)[C@@H](O)[C@H](O)[C@H]4N)[C@H]3O)[C@@H](O)[C@H](N)C[C@@H]2N)[C@H](N)[C@@H](O)[C@@H]1N` [Compound 10, 4′-amino-6′-[2-(2-(2-aminoethylamino)ethylamino)acetamido]-4′-deoxy-neomycin]?
antibacterial performance versus that of NeoB [1]: improvement in antibacterial performance; antibacterial activity (WT Geobacillus T1): showed antibacterial activity
